The data set is described as follows: ThT fluorescence quenching control.

This is an account of results in article PMC11061149, “Protein mimetic 2D FAST rescues alpha synuclein aggregation mediated early and post disease Parkinson’s phenotypes” (Nature Communications, 2024).

Where “and” joins values, the source holds several entries; their conditions need not be identical. Equal values may be shown once.

Turning to `Cc1ccc(NC(=O)c2ccc(NC(=O)c3ccc([N+](=O)[O-])c(NCCc4c[nH]c5ccccc45)n3)c(NCC3CCCCC3)n2)c(OCC(=O)O)n1` [NS132], the “quenching of the ThT fluorescence signal by the ligand, in words” value (ThT dye 50 μM, NS132 100 μM, 1×PBS pH 6.5) was “did not observe any significant quenching”. Also, the “ThT fluorescence relative to Control (ThT), Average” value (sheet S10, average of 3 trials, Control (ThT) = 1) came out at 0.927. Further, the “ThT fluorescence relative to Control (ThT), Trial 1-3” value (sheet S10, individual trials, Control (ThT) = 1) is 0.954 and 0.862 and 0.965.
